Some entries share one result that the patent states for a list of compounds. At least one compound was matched to its structure with a doubt left.
How the values were obtained:
Type in all cases: in vivo
[1] = system: tobacco cutworms (Spodoptera litura); experiment: Test Example 5: treated artificial feed, tobacco cutworms; settings: 500 ppm, 2 mL on 7.7 g artificial feed, fourth instar larvae, after 5 days
[2] = system: cabbage moths (Plutella xylostella); experiment: Test Example 7: sprayed cabbage seedling, cabbage moths at third instar; settings: 200 ppm, spray 20 mL/seedling on cabbage, third instar larvae, after 5 days
[3] = system: cabbage moths (Plutella xylostella); experiment: Test Example 6: sprayed cabbage, cut stem and leaf, cabbage moths at second instar; settings: 500 ppm, spray 20 mL/seedling on cabbage, second instar larvae, after 5 days
[4] = system: Cucurbit leaf beetles (Aulacophora femoralis); experiment: Test Example 9: sprayed cucumber leaf, Cucurbit leaf beetles; settings: 50 ppm, spray 10 mL/seedling on cucumber, second instar larvae, after 5 days
[5] = system: Western corn rootworms (Diabrotica virgifera virgifera); experiment: Test Example 8: corn seedling immersion, Western corn rootworms; settings: 500 ppm, corn seedling immersed 30 seconds, second instar larvae, after 5 days
[6] = system: brown planthoppers (Nilaparvata lugens); experiment: Test Example 3: foliar spray on rice seedling, brown planthoppers; settings: 500 ppm, spray 10 mL/seedling on rice, third instar larvae, after 6 days

CCS(=O)(=O)c1cc(C(F)(F)F)ccc1-c1ccc(-n2ccc(C(F)(F)F)n2)nn1 [compound 1]
mortality of insects [1]: ≥ 80%
mortality of insects [2]: ≥ 90%
mortality of insects [3]: ≥ 80%
mortality of insects [4]: ≥ 80%

CCS(=O)(=O)c1cccnc1-c1ccc(-n2ccc(C(F)(F)F)n2)nn1 [compound 2]
mortality of insects [2]: ≥ 90%
mortality of insects [5]: ≥ 80%
mortality of insects [3]: ≥ 80%

CCS(=O)(=O)c1cccnc1-c1ccc(-n2cnc(C(F)(F)F)n2)nn1 [compound 4]
mortality of insects [2]: ≥ 90%
mortality of insects [3]: ≥ 80%
mortality of insects [4]: ≥ 80%

CCS(=O)(=O)c1cccnc1-c1ccc(-n2cnc(Br)n2)nn1 [compound 5]
mortality of insects [2]: ≥ 90%
mortality of insects [3]: ≥ 80%

CCS(=O)(=O)c1cccnc1-c1ccc(-n2cnc(C(F)(F)F)c2)nn1 [compound 7]
mortality of insects [2]: ≥ 90%
mortality of insects [4]: ≥ 80%

CCS(=O)(=O)c1cccnc1-c1ccc(-n2cc(Br)cn2)nn1 [compound 8]
mortality of insects [2]: ≥ 90%
mortality of insects [3]: ≥ 80%
mortality of insects [4]: ≥ 80%

CCS(=O)(=O)c1cccnc1-c1ccc(-n2cc(C(F)(F)F)cn2)nn1 [compound 9]
mortality of insects [2]: ≥ 90%
mortality of insects [5]: ≥ 80%
mortality of insects [3]: ≥ 80%
mortality of insects [6]: ≥ 90%
mortality of insects [4]: ≥ 80%

CCS(=O)(=O)c1cccnc1-c1cnc(-n2ccc(C(F)(F)F)n2)cn1 [compound 10]
mortality of insects [2]: ≥ 90%
mortality of insects [5]: ≥ 80%
mortality of insects [3]: ≥ 80%
mortality of insects [6]: ≥ 90%

CCS(=O)(=O)c1cccnc1-c1cnc(-n2cnc(C(F)(F)F)n2)cn1 [compound 11]
mortality of insects [2]: ≥ 90%
mortality of insects [5]: ≥ 80%
mortality of insects [3]: ≥ 80%

CCS(=O)(=O)c1cccnc1-c1cnc(-n2cnc(C(F)(F)F)c2)cn1 [compound 12]
mortality of insects [1]: ≥ 80%
mortality of insects [2]: ≥ 90%
mortality of insects [5]: ≥ 80%
mortality of insects [3]: ≥ 80%

CCS(=O)(=O)c1cccnc1-c1cnc(-n2cc(C(F)(F)F)cn2)cn1 [compound 13]
mortality of insects [1]: ≥ 80%
mortality of insects [5]: ≥ 80%
mortality of insects [3]: ≥ 80%

CCS(=O)(=O)c1cccnc1-c1ccc(-n2cc(C(F)(F)F)cn2)cn1 [compound 15]
mortality of insects [2]: ≥ 90%
mortality of insects [5]: ≥ 80%
mortality of insects [3]: ≥ 80%

Reference: patent US11149027B2, “Heterocyclic compound” (Sumitomo Chemical Company, Limited, priority 2016, dated 2021)
